In patent publication US20230348586A1, “THERAPEUTIC AGENTS AND USES THEREOF” (THE BOARD OF REGENTS OF THE UNIVERSITY OF TEXAS SYSTEM, priority 2020, published 2023):
For at least one compound, name, drawing or mass did not settle the structure.

Legend:
Assay type in all cases: in vivo
[1] = body weight after liraglutide withdrawal in diet-induced obese mice; conditions: liraglutide alone
circulating leptin = circulating leptin levels during liraglutide treatment and after its removal; conditions: diet-induced obese mice, FIG. 4A
[2] = weight loss in high-fat diet mice, LepAB and/or liraglutide for 2 weeks; conditions: HFD mice of about 55 g, 15 day period

CCCCCCCCCCCCCCCC(=O)N[C@@H](CCC(=O)NCCCC[C@H](NC(=O)[C@H](C)NC(=O)[C@H](C)NC(=O)[C@H](CCC(N)=O)NC(=O)CNC(=O)[C@H](CCC(=O)O)NC(=O)[C@H](CC(C)C)NC(=O)[C@H](Cc1ccc(O)cc1)NC(=O)[C@H](CO)NC(=O)[C@H](CO)NC(=O)[C@@H](NC(=O)[C@H](CC(=O)O)NC(=O)[C@H](CO)NC(=O)[C@@H](NC(=O)[C@H](Cc1ccccc1)NC(=O)[C@@H](NC(=O)CNC(=O)[C@H](CCC(=O)O)NC(=O)[C@H](C)NC(=O)[C@@H](N)Cc1cnc[nH]1)[C@@H](C)O)[C@@H](C)O)C(C)C)C(=O)N[C@@H](CCC(=O)O)C(=O)N[C@@H](Cc1ccccc1)C(=O)N[C@H](C(=O)N[C@@H](C)C(=O)N[C@@H](Cc1c[nH]c2ccccc12)C(=O)N[C@@H](CC(C)C)C(=O)N[C@H](C(=O)N[C@@H](CCCNC(=N)N)C(=O)NCC(=O)N[C@@H](CCCNC(=N)N)C(=O)NCC(=O)O)C(C)C)[C@@H](C)CC)C(=O)O [liraglutide]
body weight upon withdrawal of liraglutide [1]: rapid weight rebound | circulating leptin levels after treatment removal (circulating leptin; removal at day 7, followed to day 14): rebounded reaching the level of the control group and onset of treatment by day 14 | circulating leptin levels during treatment (circulating leptin; treated for the first 7 days, vs onset of treatment and vehicle group): initial decrease | body weight gain ([2]; FIG. 3B): lost significantly more weight than the Group 2 mice | body weight change as a percentage ([2]; FIG. 3C): lost significantly more weight than Group 1 and 2 mice
